Laboratory results: publication PMC5562708
Results are given in words; binding and its absence hold for the method and conditions named. Binding seen in cells or lysates may run through a third protein. Some entries that bind do so weakly or less than the wild type. Where a sequence is shown, tags or fusion partners need not be part of it.

The chains behind the UniProt entries cited, without tags or fusion partners. Residues count along the entry.
UniProt Q13873, residues 27-1038: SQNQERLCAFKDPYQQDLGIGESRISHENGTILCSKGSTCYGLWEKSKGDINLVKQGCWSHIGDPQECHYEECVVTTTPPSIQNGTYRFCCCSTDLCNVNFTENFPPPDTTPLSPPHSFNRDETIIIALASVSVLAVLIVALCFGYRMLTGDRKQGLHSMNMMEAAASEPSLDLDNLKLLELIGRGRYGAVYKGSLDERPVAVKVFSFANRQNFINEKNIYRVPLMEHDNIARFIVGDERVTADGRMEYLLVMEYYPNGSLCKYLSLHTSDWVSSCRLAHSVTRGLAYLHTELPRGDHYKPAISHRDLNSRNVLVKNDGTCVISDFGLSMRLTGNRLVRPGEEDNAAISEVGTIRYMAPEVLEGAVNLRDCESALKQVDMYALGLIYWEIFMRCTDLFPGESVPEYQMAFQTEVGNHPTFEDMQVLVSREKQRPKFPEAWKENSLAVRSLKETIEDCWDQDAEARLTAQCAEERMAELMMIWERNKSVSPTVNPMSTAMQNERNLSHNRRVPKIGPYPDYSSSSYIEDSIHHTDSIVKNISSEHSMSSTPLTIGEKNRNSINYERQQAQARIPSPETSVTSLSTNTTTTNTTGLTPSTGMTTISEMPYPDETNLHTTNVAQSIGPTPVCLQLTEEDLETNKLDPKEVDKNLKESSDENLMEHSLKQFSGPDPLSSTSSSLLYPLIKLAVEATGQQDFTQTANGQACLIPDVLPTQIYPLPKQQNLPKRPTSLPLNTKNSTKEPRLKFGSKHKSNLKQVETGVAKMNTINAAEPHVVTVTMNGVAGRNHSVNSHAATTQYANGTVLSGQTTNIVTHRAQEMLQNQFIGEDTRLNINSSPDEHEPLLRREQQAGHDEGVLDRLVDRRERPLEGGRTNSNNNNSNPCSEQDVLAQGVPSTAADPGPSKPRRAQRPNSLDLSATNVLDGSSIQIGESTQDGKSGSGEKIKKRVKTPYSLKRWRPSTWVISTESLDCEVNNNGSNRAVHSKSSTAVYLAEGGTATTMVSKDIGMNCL

Biological target: T1, IRS2 (myc-tagged) (mouse) (UniProt P81122)
T1 sequence: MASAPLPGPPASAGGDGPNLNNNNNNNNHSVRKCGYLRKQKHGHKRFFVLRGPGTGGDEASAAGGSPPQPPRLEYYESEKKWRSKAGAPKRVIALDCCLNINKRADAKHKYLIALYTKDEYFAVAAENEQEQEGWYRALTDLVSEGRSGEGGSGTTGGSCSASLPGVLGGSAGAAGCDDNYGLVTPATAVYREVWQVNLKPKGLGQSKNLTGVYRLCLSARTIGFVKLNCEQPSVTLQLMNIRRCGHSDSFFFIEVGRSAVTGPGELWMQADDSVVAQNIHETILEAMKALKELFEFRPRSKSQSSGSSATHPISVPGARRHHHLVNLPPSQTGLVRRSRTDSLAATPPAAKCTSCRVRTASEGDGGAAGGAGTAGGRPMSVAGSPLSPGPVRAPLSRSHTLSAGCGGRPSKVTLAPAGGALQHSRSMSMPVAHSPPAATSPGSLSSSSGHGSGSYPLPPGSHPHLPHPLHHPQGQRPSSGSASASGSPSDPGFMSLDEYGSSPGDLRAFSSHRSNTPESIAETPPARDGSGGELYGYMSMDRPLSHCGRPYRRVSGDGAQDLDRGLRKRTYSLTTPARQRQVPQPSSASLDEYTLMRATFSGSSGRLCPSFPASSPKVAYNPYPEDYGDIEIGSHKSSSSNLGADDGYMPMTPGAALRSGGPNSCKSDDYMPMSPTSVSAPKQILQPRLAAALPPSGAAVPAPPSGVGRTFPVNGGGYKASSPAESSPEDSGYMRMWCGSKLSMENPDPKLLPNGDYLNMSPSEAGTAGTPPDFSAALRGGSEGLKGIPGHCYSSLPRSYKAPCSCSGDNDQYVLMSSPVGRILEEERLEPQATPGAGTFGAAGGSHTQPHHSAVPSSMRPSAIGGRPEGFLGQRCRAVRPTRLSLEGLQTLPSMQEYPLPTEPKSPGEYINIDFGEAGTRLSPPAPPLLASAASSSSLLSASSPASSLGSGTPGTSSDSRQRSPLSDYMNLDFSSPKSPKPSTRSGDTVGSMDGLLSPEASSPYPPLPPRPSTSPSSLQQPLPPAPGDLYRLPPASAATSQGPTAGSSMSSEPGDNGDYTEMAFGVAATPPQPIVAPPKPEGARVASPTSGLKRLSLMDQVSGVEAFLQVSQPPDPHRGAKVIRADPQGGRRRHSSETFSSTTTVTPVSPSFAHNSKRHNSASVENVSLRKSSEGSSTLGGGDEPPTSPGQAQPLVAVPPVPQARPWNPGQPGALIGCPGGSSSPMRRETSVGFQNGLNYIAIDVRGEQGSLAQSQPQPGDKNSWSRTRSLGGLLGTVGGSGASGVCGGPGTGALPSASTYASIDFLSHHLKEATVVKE
Assay: co-IP; transfected HEK293T cells, lysed directly or starved 6 h and stimulated with 10 nM BMP2; RIPA or TNE buffer; IP with anti-myc (9E10) or anti-IRS4 antibody overnight, protein A sepharose; Western blot

- binding: binds
Substance: HA-tagged BMPRII long form (HA-BMPRII-LF) (from UniProt Q13873 27-1038) (receptor)
